# Patent US20240368215 (published 2024)
# Assay: Fmoc solid-phase peptide synthesis in flow; IBCF with DIEA and DMBA
# Settings: coupling step
row,Substance,step yield
1,H-Ala-Glu(OtBu)-Lys(Boc)-Leu-O-TIPS2,95%
2,H-Glu(OtBu)-Ala-Glu(OtBu)-Lys(Boc)-Leu-O-TIPS2,96%
